From PubChem BioAssay AID1347423 (Functional Genomics Laboratory (NCATS/FGL), 2020)
Screen size: about 52,000 sequences; about 210 (0.4%) were called active.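 How the source made its calls: active means gene whose silencing raises cell survival under the drug, median off-target-corrected z-score across its silencing RNAs 2 or more; inactive means the rest.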 The list shows a part of the results.

assay: Resistance to Poly (ADP-Ribose) Polymerase inhibitor: Gene Identification via Genome-wide siRNA Screen; conditions: mouse BRCA2 R2336H ES cells, olaparib, CellTiter-Glo viability; stronger effect = higher value
In short: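 Genome-wide siRNA screen (3 siRNAs/gene, 20 nM) in mouse ES cells carrying hypomorphic BRCA2 R2336H; olaparib 500 nM added 48 h post-transfection, CellTiter-Glo viability 72 h later. Normalized to plate-median negative control; MAD z-scores, gene median, seed-adjusted.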

Sequence | z-score
GGAGCUACAGCAGUGCUUUTT against Htr5a | inactive: 0.673
GGUAAUGGUAAAUGAUGUGTT against Celsr3 | inactive: -1.41
GCCACCAUCGUCAUGUUGATT against Ptpre | inactive: 0.825
GGAAGGUCAAGUCUUUUCUTT against Tesk1 | inactive: -0.814
CCAACCUGACCUCAAAAUUTT against Olfr913 | inactive: 0.896
GGUGAUCGAGGAGAGUCUATT against D130038B21Rik | inactive: -1.13
GGUCUGAAAAAAGUAUCUUTT against 4930432O21Rik | inactive: 0.277
CGUCUGUCCUAAUGAACCUTT against MGC118154 | inactive: -1.78
GGAACUCUGUAGACAGAAUTT against Lpin1 | inactive: -1.23
GGGAAGAAAGAAAAACAAGTT against Col5a3 | inactive: 0.137
GCCAUUCGUAGUUGAGACGTT against Ppat | inactive: -1.15
GGAUGCUCAAAACAUUGAATT against Cyp2d26 | inactive: -1.08
UGCCUAUGCGCGUGUUUUGTT against 4931440P22Rik | inactive: 2.18
GAGCUCUGCAUUUGGUUAGTT against 2610510H03Rik | inactive: -0.517
GGCCAAGUUUUCUAACUUUTT against Creg2 | inactive: 0.00504
GGGCAAGGGUCUCAAACUATT against Rangap1 | inactive: -1.5
CGGUACUAAACAUUACCUCTT against Olfr633 | inactive: 0.294
GGUCUCCUCCAAGAUGAUGTT against Mettl3 | inactive: 0.651
GGAACAAGUGGCUGAAGAUTT against Cyp11b2 | inactive: -2.33
CCAUAAACGACGAAAUGAUTT against Usp11 | active: 2.97
GGAGAAACUGAAACAAGCUTT against Gpc4 | inactive: 1.03
GCUGGUAUGACCAAGAGAATT against Mutyh | inactive: -1.23
GGGUGUCAUAUGCAAAUUATT against Scube1 | inactive: -1.07
GCGUGUUGAAUUGAGGAAGTT against Galnt11 | inactive: 1.48
CCUUUGUGGCAGUCUUUCATT against Vpreb3 | inactive: -0.616
GGGAGAGACAUAUAUCCUGTT against A930034L06Rik | inactive: 0.171

Shown in markdown: entries from further up

| Sequence | z-score |
| --- | --- |
| CCAACCUGACCUCAAAAUUTT against Olfr913 | inactive: 0.896 |
| GGUGAUCGAGGAGAGUCUATT against D130038B21Rik | inactive: -1.13 |
| GGUCUGAAAAAAGUAUCUUTT against 4930432O21Rik | inactive: 0.277 |
| CGUCUGUCCUAAUGAACCUTT against MGC118154 | inactive: -1.78 |

The list continues.

Sequence | z-score
CCUGGAGAUCCCUCACUUUTT against Olfr1351 | inactive: -0.159
CGGCAGUGUUAAAACAUGATT against Fgfr2 | inactive: 0.114
GGCAUGAACCAAGAUGCUGTT against Nr2e3 | inactive: 1.93
GGACAUUACACUGUUCAAATT against 6430546I09 | inactive: 0.291
GGCUGUAGUGAAGGUGUACTT against Adprtl3 | inactive: 1.62
GGAAAUAGAUUUUCAGCUCTT against Dnase2b | inactive: -0.117
GCCUCACGGUUAGUUGGGATT against 3110062M04Rik | inactive: -0.887
GCUCAUGCAUGAGAAUGCCTT against Ifi30 | inactive: -0.033
CCUGGAUCUACUUUUCAGUTT against Mrgprd | inactive: -0.168
GGGACUUAGAAACAAUCCATT against Hsd3b4 | inactive: 2.07
GGUGAUCAUAUAAGUUAGUTT against 9130416N05Rik | inactive: 0.54
GCUCAUCAAAACACUGACCTT against B130016L12Rik | inactive: -2.85
GGCAUUAUCGUGGUUGGCATT against 2310079N02Rik | inactive: -1.21
GCUGGUAUUGGCGAAUGGUTT against 4930506D23Rik | inactive: -3.07
CCAGACUAUUGACUUUCUGTT against 2700063A19Rik | inactive: 0.33
GGAUGACUCUAUCUUUCUATT against Igfbp4 | inactive: 0.102
GGACGAUCUCUACAUAGAUTT against Mrps28 | inactive: -0.0314
CCCUAACUCAGACUCCAUGTT against C530028O21Rik | inactive: -0.793
GCAUUGGGUAUAAAGUAAGTT against 4931440L10Rik | inactive: 0.404
GGAUGUUGGUCUCACAUCGTT against Bmpr2 | inactive: 0.655
CCCAUGUAAGGAUGUGUCGTT against A930004K21Rik | inactive: -0.605
GCAACCUGUAUGCUUUUGUTT against 1110064L07Rik | inactive: 0.0915
GAAAAAUACCCUGGCACUGTT against Olfr823 | inactive: 0.311
CGGAUAUUAUUGUUUGGAATT against Nalp9a | inactive: -0.209
CCGAAUCUGUCGUAUCACUTT against Dvl2 | inactive: 1.5
GGUCUCUUUCAACAAAAAUTT against Sec22l2 | inactive: 0.0105

Some of the entries so far, tab-delimited.
Sequence	z-score
CCCAUGUAAGGAUGUGUCGTT against A930004K21Rik	inactive: -0.605
GCAACCUGUAUGCUUUUGUTT against 1110064L07Rik	inactive: 0.0915
GAAAAAUACCCUGGCACUGTT against Olfr823	inactive: 0.311

The list goes on:

Sequence | z-score
CGUAUUAGUAAUAAGGGCATT against 3110050N22Rik | inactive: 0.444
GGGCUGAAGUGAAACCAGATT against D930048N14Rik | inactive: -2.49
GCCAAAGAGCAUAUCGAUUTT against 4921517N04Rik | inactive: -0.398
GGUUAUGAAGGUGUAUACUTT against Notch1 | inactive: -0.525
GGAGUGAGAUUGUUAACAUTT against Ank1 | inactive: -0.634
GGUUGCGAUGAGGAGACUATT against Olfr1318 | inactive: -2.27
GGAUUUCAACAUGCCUCUGTT against 1110001A05Rik | inactive: -0.102
GGUGUGUGGCCAGAAAGUUTT against 2310047I15Rik | inactive: -2
CCAGUAUUCCUGAAAAUGATT against Tfg | inactive: -1.93
GGUAAUGUUAGCAGAACAATT against Ifih1 | inactive: -1.25
GGUCGUCCAGCUGAAGAACTT against Nrbf1 | inactive: -0.263
GGAAUCUGAAGGAGAUGCATT against Prss7 | inactive: -0.352
GGAGUGGCCAUUAAAUUUATT against Slc17a8 | inactive: 0.232
GGAAAAACUGGUCUAUCAATT against Polr3f | inactive: -2.5
CCUAUCAUUCUCAAAGGGATT against 1110067I12Rik | inactive: -0.411
UUCUAAUUGUCACUUGGUGTT against Olfr1474 | inactive: 0.103
GGAGAUGGAAUGAAGUAUUTT against Fbxl21 | inactive: -0.49
CCCUGUUAUUAUCUUGAUUTT against 1110067L22Rik | inactive: -0.515
GGAGGACAGGAAAACAGAATT against H2-Ke6 | inactive: 0.303
GGAAACCAUCUUUGAACUUTT against 4932439K10Rik | inactive: 1.5
GCUACCAAAGGAAUUUUGATT against Cul4a | inactive: -0.739
CCGACACCUGUCAAUUCUGTT against Tcof1 | inactive: -1.55
GCAGUAUGGGACUAUGCUUTT against Cp | inactive: 2.32
CCAAUAAGAAUUCAGAUCGTT against Ufd1l | inactive: 0.934
GGCAGAAAUACAAUCUUCGTT against D17Ertd488e | inactive: -0.627
GGUAAAAGAUGAGAAAAACTT against 2810052M02Rik | inactive: 0.201

Sequence | z-score
GGUGGAAUUCUCUUCAACUTT against Mbtps1 | inactive: -0.497
GGAUGAAAUCGAUUGUCUCTT against Ppgb | inactive: 0.669
GGCACAGAAUAUCCACCACTT against Olfr283 | inactive: -1.16
CCGACUACAGCAUGUAUAUTT against 9230102I19Rik | inactive: -0.69
GGAAAUAAACAAGUCCCACTT against 2900073H19Rik | inactive: 0.14
GGAACUAGCCUUCACUGACTT against Rabggta | inactive: -0.909
GGGCUCCUAUUGGACAAUUTT against Foxj2 | inactive: -1.55
CCGUAGCGAGACUUACAUCTT against Accn3 | inactive: -0.146
GGAGGAAAAGGCAAUCGUUTT against Gtpbp5 | inactive: -1.12
GUACUGCCCGUCCACUUUUTT against Insm2 | inactive: -1.72
GGGACAAAAUUAUUCCUCCTT against Crsp2 | inactive: -1.28
GGAUGAGAGGUAAAGUAACTT against Nptxr | inactive: -0.395
CCAGAGGUUCACAAAACGATT against Anapc5 | inactive: -2.8
GGAGUUGUGGGAAGAAGAATT against Paip2 | inactive: -1.66
GGAUCAGUGGUAUUGGUUCTT against Krtcap1 | inactive: -0.882
GGACUCCGUCAUAUACGAATT against Olfr1102 | inactive: 0.557
GCCUGGACACCAUACCAAUTT against Plxdc2 | inactive: -0.485
UCCAGCUGGCGAAGUGGGCTT against LOC328779 | inactive: 0.928
GCUGUUGUUUACUUGGCAATT against V1rh21 | inactive: -0.442
GCCAAAAGUCGAGCACCUCTT against Lrrc5 | inactive: -0.0025
CGCUCUCAAGGUAUAGUCCTT against Cyp2d22 | inactive: -0.0194
GGAGUUUUAACAACAGUAGTT against AI586120 | inactive: -2.34
GGUGGCUACCUGGUGAUCUTT against 8430417A20Rik | inactive: 0.676
CGUUUGACACUUUUGCCUUTT against Mid1 | inactive: -1.4
